The record followed here is PMC4346921, “Identification of the Specific Interactors of the Human Lariat RNA Debranching Enzyme 1 Protein” (International Journal of Molecular Sciences, 2015).

No constants are given. Whether binding was seen depends on the method and setting. In cells and extracts the contact can be indirect. These calls come from enrichment with a bait or labelling near it, and not all partners need be listed. Sequences can lack the tags named with a protein.

This experiment deals with T1, Flag-hDbr1 (human) (UniProt Q9UK59).
T1 sequence: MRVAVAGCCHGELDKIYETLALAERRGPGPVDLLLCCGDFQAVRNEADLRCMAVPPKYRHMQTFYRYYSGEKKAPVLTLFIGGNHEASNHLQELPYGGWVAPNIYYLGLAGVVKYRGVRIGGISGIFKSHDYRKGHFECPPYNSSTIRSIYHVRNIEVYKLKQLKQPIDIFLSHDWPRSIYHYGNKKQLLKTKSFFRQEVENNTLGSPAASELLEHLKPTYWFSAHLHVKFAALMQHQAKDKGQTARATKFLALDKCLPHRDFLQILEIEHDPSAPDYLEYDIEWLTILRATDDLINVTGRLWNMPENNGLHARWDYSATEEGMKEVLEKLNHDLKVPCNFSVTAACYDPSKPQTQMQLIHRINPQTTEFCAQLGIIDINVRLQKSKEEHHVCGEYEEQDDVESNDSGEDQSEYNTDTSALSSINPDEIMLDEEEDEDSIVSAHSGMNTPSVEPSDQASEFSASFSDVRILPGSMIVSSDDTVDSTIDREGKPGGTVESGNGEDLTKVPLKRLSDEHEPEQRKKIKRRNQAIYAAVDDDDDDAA
Nature of the experiment: affinity purification with mass spectrometry; Flag-hDbr1 precipitated with anti-Flag M2 resin from HEK293T cell extract; SDS-PAGE, Coomassie staining, excised bands identified by MALDI-TOF/MS; Flag-vector extract as control.

B1: T7-His-hDrn1 (natural protein, human, UniProt Q69YN2-1 1-538, looked up)
chain: MAQKPLRLLACGDVEGKFDILFNRVQAIQKKSGNFDLLLCVGNFFGSTQDAEWEEYKTGIKKAPIQTYVLGANNQETVKYFQDADGCELAENITYLGRKGIFTGSSGLQIVYLSGTESLNEPVPGYSFSPKDVSSLRMMLCTTSQFKGVDILLTSPWPKCVGNFGNSSGEVDTKKCGSALVSSLATGLKPRYHFAALEKTYYERLPYRNHIILQENAQHATRFIALANVGNPEKKKYLYAFSIVPMKLMDAAELVKQPPDVTENPYRKSGQEASIGKQILAPVEESACQFFFDLNEKQGRKRSSTGRDSKSSPHPKQPRKPPQPPGPCWFCLASPEVEKHLVVNIGTHCYLALAKGGLSDDHVLILPIGHYQSVVELSAEVVEEVEKYKATLRRFFKSRGKWCVVFERNYKSHHLQLQVIPVPISCSTTDDIKDAFITQAQEQQIELLEIPEHSDIKQIAQPGAAYFYVELDTGEKLFHRIKKNFPLQFGREVLASEAILNVPDKSDWRQCQISKEDEETLARRFRKDFEPYDFTLDD
notes: Cwf19L1/hDrn1 cDNA (NM_018294), same fragment as in myc-/Flag-hDrn1, between BamHI and XhoI sites of pET-28a; pET-28a with BamHI/XhoI would place the His and T7 tags at the N-terminus (surmised); also called T7- and His-tagged hDrn1 protein; His-tagged hDrn1; source: E. coli BL21 (DE3) CodonPlus-RIPL, purified (Ni-NTA)
As for B1, the binding result is recorded as “binds”.
